Experimental data reported in publication PMC7274033.
These are yes or no findings as the source states them, for the method shown. Binding seen in cells or lysates may run through a third protein. Some entries that bind do so weakly or less than the wild type. For some assays here: Sequences can lack the tags named with a protein. Values belong to the binder of their own block, whether it stands above or below them.

Chains of the proteins cited; added tags and fusions are not shown.
UniProt Q9QZL0: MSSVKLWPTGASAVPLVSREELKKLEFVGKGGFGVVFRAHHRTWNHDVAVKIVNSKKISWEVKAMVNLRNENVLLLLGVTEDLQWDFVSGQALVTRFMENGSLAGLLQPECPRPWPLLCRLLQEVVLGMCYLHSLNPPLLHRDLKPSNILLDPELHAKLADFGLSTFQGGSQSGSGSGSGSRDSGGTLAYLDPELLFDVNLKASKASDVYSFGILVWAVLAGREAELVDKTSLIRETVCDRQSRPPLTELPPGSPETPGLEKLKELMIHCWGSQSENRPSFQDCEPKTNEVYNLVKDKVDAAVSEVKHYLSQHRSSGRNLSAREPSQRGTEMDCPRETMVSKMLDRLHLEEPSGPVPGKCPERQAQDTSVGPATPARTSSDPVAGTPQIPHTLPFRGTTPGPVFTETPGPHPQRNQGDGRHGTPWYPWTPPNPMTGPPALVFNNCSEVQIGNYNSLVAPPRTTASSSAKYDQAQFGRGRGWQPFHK

Assays:
[1] = molecular target: T1, ASC (apoptosis-associated speck-like protein containing a CARD), endogenous in BMDMs (mouse (endogenous in BMDMs)) (UniProt Q9EPB4); assay: co-IP; endogenous proteins of primary BMDMs stimulated 4 h with LPS (100 ng/mL) + TAK1 inhibitor 5Z-7-oxozeaenol (0.1 uM), without zVAD; NP-40 lysis buffer; RIPK1 or ASC immunoprecipitated, protein A/G plus agarose; immunoblot
T1 sequence: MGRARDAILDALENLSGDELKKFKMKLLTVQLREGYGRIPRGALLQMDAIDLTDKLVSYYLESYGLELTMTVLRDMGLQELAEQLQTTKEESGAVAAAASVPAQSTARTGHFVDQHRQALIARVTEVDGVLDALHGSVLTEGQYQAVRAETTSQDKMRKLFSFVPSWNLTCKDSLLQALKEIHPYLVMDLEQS

[2] = molecular target: T2, RIPK1 (RIP kinase 1), endogenous in BMDMs (mouse (endogenous in BMDMs)) (UniProt Q60855); assay: as above
T2 sequence: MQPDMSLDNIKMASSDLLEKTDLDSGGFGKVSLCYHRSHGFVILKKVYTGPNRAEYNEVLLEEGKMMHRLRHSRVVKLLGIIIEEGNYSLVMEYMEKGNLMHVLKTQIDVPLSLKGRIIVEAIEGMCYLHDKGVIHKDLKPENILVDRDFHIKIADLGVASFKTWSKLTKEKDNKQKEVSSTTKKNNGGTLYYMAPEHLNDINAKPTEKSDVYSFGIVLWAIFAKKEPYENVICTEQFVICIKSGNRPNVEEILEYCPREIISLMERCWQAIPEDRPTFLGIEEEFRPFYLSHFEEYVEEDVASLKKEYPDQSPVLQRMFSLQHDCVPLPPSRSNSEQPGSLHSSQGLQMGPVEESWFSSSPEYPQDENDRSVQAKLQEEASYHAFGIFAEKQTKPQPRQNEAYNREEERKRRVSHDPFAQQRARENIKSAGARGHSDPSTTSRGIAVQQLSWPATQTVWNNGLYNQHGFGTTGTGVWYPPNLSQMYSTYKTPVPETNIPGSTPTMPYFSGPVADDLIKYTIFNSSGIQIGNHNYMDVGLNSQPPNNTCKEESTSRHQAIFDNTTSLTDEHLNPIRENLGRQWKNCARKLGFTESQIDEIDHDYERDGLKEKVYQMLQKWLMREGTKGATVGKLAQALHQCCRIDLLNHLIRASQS

[3] = molecular target: T2, RIPK1 (RIP kinase 1), endogenous in BMDMs (mouse (endogenous in BMDMs)); assay: co-IP; endogenous proteins of primary BMDMs stimulated 4 h with LPS (100 ng/mL) + TAK1 inhibitor 5Z-7-oxozeaenol (0.1 uM) + zVAD; NP-40 lysis buffer; RIPK1 or ASC immunoprecipitated overnight at 4°C, protein A/G plus agarose; immunoblot
[4] = molecular target: RIPK3-GFP (receptor-interacting serine/threonine-protein kinase 3) (UniProt Q9QZL0); assay: co-IP; HEK293T co-transfected (600 ng each, 30 h) with ASC-turboGFP, CASP8, FLAG-NLRP3, RIPK1 and mCherry-ZBP1 with or without RIPK3-GFP; zVAD-fmk; RIPK3 immunoprecipitated; NP-40 lysis buffer; protein A/G-plus agarose; immunoblot
[5] = molecular target: T3, ASC (apoptosis-associated speck-like protein containing a CARD), endogenous in BMDMs (mouse (endogenous in BMDMs)), Q9EPB4; assay: co-IP; endogenous proteins of primary BMDMs stimulated 4 h with LPS (100 ng/mL) + TAK1 inhibitor 5Z-7-oxozeaenol (0.1 uM) + zVAD; NP-40 lysis buffer; RIPK1 or ASC immunoprecipitated overnight at 4°C, protein A/G plus agarose; immunoblot; conditions: remark: other sources report otherwise
T3 chain: T1 sequence

[6] = molecular target: RIPK3-GFP (receptor-interacting serine/threonine-protein kinase 3), Q9QZL0; assay: co-IP; HEK293T co-transfected (600 ng each, 30 h) with ASC-turboGFP, CASP8, FLAG-NLRP3, RIPK1 and mCherry-ZBP1 with or without RIPK3-GFP; zVAD-fmk; RIPK3 immunoprecipitated; NP-40 lysis buffer; protein A/G-plus agarose; immunoblot; conditions: remark: other sources report otherwise
[7] = molecular target: T1, ASC (apoptosis-associated speck-like protein containing a CARD), endogenous in BMDMs (mouse (endogenous in BMDMs)); assay: co-IP; endogenous proteins of primary BMDMs stimulated 4 h with LPS (100 ng/mL) + TAK1 inhibitor 5Z-7-oxozeaenol (0.1 uM) + zVAD; NP-40 lysis buffer; RIPK1 or ASC immunoprecipitated overnight at 4°C, protein A/G plus agarose; immunoblot

B1: CASP8 (caspase-8), endogenous in BMDMs (protein, UniProt O89110 1-480)
chain: MDFQSCLYAIAEELGSEDLAALKFLCLDYIPHKKQETIEDAQKLFLRLREKGMLEEGNLSFLKELLFHISRWDLLVNFLDCNREEMVRELRDPDNAQISPYRVMLFKLSEEVSELELRSFKFLLNNEIPKCKLEDDLSLLEIFVEMEKRTMLAENNLETLKSICDQVNKSLLGKIEDYERSSTERRMSLEGREELPPSVLDEMSLKMAELCDSPREQDSESRTSDKVYQMKNKPRGYCLIINNHDFSKAREDITQLRKMKDRKGTDCDKEALSKTFKELHFEIVSYDDCTANEIHEILEGYQSADHKNKDCFICCILSHGDKGVVYGTDGKEASIYDLTSYFTGSKCPSLSGKPKIFFIQACQGSNFQKGVPDEAGFEQQNHTLEVDSSSHKNYIPDEADFLLGMATVKNCVSYRDPVNGTWYIQSLCQSLRERCPQGDDILSILTGVNYDVSNKDDRRNKGKQMPQPTFTLRKKLFFPP
binding [1]: binds weakly
binding [2]: binds weakly
binding [3]: binds

B2: CASP8 (caspase-8), expressed from pCDH-CMV-CASP8 (protein, UniProt O89110 1-480)
chain: B1 chain
binding [4]: binds

B3: CASP8 (caspase-8), endogenous in BMDMs, O89110 1-480 (protein)
chain: B1 chain
binding [5]: binds

B4: RIPK1 (RIP kinase 1), expressed from pCMV-mRIPK1, Q60855 1-656 (protein)
chain: T2 sequence
binding [6]: binds

Next, values leading:

binding [6]: binds
B5: ASC-turboGFP (apoptosis-associated speck-like protein containing a CARD), expressed from pCMV6-mASC-turboGFP, Q9EPB4 1-193 (protein)
chain: T1 sequence

binding [1]: binds weakly
binding [2]: binds weakly
binding [7]: binds
binding [3]: binds
B6: FADD, endogenous in BMDMs (protein, UniProt Q61160 1-205)
chain: MDPFLVLLHSLSGSLSGNDLMELKFLCRERVSKRKLERVQSGLDLFTVLLEQNDLERGHTGLLRELLASLRRHDLLQRLDDFEAGTATAAPPGEADLQVAFDIVCDNVGRDWKRLARELKVSEAKMDGIEEKYPRSLSERVRESLKVWKNAEKKNASVAGLVKALRTCRLNLVADLVEEAQESVSKSENMSPVLRDSTVSSSETP
